This is one part of the list. Residues, ends and D or L forms follow the SMILES beside them. *: point of attachment. Cbz = O=C(OCc1ccccc1)*
How the values were obtained:
Assay in all cases: log2 fold change, soluble protein after heating vs DMSO (PISA); higher = thermal stabilisation; K562 cells, 10 uM, 30 min; active = over 0.2 and 3.5 SD of the protein, either way, in both replicates (recomputed)
IRAK-1-4 Inhibitor I = compound: C1COCCN1CCN2C3=CC=CC=C3N=C2NC(=O)C4=CC(=CC=C4)[N+](=O)[O-] [IRAK-1-4 Inhibitor I]
Procedure, shortened: (§1)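 K562 cells at 2×10^6 cells/mL were treated for 30 min with 10 μM compound, and aliquots were heated for 3 min over 48°C-58°C before pooling. Extraction used PBS with 0.5% NP-40 at 4°C, and soluble protein was the supernatant after 21,000xg for 90 min, measured by TMTpro 16plex LC-MS/MS with channel sums equalised. Thermal stability values, relative to control samples and from duplicates, are log2 fold changes.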

The chains behind the UniProt entries cited, without tags or fusion partners. Where a name states a change or a piece, a line headed by the entry shows the natural chain unless it says otherwise.
UniProt Q9ULC8: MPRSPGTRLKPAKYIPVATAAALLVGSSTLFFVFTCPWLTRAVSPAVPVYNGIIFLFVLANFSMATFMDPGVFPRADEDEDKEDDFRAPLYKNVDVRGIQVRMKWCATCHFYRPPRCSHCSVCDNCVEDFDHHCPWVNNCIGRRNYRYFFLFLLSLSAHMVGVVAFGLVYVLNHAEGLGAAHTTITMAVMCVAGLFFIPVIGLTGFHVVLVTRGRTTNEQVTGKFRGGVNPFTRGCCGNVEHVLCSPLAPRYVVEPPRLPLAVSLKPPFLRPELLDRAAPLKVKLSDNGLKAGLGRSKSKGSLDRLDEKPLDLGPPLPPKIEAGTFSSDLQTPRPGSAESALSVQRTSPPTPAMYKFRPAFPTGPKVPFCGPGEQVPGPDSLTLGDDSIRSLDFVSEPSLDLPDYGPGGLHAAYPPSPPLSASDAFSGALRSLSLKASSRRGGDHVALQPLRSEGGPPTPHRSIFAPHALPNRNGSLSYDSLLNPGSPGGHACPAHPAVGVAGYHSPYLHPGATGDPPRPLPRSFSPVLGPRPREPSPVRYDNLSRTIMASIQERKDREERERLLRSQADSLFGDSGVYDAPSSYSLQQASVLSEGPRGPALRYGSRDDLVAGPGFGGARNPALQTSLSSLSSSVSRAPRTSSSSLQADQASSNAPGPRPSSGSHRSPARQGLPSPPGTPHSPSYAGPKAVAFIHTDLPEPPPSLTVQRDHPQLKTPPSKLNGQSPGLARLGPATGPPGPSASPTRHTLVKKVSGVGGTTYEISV
UniProt Q9UBW7: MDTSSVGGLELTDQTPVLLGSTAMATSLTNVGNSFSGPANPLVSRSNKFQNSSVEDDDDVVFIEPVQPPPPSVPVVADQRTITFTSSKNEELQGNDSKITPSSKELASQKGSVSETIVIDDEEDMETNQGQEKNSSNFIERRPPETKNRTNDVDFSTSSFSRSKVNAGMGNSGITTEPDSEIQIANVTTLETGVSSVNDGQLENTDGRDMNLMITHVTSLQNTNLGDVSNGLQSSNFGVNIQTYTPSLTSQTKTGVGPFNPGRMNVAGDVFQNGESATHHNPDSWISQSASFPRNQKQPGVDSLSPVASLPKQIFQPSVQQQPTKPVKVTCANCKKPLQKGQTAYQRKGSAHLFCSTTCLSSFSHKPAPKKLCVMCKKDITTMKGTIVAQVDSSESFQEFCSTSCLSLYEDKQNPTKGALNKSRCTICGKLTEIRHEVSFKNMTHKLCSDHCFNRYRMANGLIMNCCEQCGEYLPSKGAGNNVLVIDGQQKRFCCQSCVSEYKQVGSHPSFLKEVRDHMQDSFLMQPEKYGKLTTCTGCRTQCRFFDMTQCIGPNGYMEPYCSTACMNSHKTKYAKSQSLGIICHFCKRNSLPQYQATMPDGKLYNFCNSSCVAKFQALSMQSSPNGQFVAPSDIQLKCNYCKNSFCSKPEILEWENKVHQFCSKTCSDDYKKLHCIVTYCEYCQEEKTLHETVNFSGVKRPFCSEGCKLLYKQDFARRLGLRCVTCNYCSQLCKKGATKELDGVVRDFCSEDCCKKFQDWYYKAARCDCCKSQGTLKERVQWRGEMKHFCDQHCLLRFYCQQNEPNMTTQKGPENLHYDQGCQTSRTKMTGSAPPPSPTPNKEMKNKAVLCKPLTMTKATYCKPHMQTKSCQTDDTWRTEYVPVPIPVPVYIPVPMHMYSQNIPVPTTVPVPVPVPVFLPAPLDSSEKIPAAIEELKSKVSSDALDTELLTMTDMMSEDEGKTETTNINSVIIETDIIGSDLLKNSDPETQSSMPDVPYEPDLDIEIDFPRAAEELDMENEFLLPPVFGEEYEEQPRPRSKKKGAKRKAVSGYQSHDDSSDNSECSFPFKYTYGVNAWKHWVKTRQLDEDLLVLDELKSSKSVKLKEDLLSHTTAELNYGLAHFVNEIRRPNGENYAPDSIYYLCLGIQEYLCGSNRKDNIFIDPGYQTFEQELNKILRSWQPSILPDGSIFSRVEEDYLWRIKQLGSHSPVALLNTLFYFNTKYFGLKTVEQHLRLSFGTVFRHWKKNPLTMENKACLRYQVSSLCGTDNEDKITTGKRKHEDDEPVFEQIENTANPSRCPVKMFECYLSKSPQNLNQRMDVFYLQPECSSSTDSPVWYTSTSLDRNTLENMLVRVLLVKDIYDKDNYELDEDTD
UniProt Q96KR1: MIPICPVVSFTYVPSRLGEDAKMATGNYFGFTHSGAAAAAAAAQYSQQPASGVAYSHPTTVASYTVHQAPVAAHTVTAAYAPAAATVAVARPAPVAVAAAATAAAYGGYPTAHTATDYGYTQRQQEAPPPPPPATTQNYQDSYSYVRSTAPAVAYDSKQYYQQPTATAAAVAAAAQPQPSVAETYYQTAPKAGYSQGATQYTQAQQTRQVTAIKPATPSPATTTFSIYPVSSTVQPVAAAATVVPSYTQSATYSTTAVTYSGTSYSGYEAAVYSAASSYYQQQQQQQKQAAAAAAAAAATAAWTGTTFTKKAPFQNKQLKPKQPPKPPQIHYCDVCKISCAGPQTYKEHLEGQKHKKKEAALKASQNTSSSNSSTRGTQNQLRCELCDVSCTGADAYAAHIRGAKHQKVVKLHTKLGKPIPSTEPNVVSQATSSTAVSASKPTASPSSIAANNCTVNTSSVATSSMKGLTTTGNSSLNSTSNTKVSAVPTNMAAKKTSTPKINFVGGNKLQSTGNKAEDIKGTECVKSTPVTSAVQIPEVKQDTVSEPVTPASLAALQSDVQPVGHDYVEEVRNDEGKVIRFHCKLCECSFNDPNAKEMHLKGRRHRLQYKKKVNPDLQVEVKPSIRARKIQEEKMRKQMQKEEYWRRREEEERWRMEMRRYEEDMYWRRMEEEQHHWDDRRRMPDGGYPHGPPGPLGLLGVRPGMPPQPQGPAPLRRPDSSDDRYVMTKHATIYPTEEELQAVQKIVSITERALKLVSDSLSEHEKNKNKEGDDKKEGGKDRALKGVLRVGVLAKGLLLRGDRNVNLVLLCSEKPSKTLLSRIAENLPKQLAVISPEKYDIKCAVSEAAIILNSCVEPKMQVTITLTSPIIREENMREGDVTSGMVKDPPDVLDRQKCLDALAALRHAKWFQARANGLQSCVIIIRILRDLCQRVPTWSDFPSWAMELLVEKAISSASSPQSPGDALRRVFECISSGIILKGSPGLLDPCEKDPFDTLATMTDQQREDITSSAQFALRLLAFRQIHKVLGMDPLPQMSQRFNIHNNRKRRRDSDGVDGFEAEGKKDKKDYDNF
UniProt Q9UIJ5: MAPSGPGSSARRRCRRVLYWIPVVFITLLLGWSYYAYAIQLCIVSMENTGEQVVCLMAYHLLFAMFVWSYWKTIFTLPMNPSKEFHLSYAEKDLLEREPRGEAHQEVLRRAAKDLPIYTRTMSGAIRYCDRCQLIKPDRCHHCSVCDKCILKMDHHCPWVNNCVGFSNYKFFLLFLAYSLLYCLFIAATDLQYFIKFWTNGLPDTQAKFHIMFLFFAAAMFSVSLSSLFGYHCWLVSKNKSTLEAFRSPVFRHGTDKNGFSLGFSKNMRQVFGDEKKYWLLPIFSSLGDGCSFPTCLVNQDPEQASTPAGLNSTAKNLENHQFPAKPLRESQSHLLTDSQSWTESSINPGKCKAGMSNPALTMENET
UniProt Q5VZL5: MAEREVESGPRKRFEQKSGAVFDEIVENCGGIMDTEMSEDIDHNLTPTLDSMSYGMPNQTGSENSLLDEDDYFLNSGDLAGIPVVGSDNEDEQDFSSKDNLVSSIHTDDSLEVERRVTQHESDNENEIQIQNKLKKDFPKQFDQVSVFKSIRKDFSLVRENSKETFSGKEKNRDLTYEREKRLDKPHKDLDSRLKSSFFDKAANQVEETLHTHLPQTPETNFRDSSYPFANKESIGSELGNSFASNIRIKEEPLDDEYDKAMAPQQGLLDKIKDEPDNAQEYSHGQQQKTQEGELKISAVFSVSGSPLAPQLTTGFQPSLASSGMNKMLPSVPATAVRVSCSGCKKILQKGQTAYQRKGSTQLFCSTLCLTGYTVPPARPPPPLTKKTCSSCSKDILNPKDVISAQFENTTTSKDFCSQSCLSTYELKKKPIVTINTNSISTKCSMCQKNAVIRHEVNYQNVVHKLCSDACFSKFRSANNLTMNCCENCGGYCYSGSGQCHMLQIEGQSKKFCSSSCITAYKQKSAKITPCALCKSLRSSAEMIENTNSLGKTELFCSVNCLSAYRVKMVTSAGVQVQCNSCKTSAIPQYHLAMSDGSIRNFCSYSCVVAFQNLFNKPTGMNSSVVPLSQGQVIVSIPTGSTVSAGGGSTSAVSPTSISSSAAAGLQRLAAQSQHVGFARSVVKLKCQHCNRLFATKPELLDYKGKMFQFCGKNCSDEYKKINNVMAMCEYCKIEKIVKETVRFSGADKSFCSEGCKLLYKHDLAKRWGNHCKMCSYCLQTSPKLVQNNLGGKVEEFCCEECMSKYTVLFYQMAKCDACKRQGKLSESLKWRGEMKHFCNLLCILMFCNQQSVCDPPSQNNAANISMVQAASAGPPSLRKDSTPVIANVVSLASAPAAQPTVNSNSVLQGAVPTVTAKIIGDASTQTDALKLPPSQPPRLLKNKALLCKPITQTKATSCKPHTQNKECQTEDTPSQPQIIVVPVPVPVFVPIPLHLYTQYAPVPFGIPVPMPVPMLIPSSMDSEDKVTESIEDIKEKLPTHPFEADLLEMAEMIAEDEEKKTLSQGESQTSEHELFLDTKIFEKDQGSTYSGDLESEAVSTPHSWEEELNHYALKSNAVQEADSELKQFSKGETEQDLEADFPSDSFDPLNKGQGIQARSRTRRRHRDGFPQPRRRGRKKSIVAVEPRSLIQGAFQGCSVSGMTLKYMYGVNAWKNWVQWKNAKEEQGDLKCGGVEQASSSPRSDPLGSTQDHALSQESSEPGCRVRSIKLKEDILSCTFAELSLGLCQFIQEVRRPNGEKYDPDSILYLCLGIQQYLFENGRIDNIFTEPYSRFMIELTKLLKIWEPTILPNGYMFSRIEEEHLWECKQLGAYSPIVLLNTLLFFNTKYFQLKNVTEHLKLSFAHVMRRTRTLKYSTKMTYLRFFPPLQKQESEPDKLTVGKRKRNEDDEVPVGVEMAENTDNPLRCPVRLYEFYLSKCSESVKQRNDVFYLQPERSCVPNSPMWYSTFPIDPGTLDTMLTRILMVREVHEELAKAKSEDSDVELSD
UniProt P18887, whole entry, looked up: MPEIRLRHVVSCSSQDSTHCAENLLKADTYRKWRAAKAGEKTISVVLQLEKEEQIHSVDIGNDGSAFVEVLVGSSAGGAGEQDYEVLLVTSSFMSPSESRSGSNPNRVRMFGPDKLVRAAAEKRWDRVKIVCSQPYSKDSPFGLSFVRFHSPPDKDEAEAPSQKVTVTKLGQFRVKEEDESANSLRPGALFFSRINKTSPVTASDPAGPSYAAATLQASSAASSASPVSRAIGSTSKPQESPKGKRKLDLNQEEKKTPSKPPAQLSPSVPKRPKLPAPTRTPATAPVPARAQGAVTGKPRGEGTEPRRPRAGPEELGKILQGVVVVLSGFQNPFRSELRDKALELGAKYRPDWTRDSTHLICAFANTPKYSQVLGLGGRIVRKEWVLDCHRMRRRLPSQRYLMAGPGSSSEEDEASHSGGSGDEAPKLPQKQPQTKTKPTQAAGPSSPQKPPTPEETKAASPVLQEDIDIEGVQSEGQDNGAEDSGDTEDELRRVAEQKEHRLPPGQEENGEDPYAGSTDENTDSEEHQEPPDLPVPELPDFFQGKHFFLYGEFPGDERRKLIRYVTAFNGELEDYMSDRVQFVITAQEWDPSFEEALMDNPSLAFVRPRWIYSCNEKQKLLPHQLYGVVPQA
UniProt Q13105: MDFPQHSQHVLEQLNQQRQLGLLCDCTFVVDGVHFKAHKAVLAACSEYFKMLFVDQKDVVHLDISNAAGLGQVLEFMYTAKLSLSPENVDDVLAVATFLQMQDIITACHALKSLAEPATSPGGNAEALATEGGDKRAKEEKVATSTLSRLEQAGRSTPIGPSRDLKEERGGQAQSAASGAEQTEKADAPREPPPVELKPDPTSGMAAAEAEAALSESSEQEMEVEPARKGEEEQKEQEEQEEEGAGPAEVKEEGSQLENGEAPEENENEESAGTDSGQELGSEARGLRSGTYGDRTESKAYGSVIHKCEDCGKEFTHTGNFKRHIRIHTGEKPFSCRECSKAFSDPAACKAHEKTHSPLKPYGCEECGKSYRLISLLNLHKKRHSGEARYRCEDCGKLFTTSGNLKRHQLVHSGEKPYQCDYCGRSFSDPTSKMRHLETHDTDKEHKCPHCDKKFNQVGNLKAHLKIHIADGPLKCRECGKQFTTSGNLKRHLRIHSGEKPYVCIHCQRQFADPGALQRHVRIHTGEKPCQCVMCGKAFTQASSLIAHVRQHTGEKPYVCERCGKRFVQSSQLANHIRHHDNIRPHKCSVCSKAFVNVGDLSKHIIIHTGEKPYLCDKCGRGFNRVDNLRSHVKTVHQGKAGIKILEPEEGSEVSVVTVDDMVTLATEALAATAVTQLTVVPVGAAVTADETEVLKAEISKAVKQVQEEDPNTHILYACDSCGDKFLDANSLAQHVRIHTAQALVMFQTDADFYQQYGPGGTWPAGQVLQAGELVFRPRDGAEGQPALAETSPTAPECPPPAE

ibrutinib = compound: C=CC(=O)N1CCC[C@@H](n2nc(-c3ccc(Oc4ccccc4)cc3)c3c(N)ncnc32)C1 [ibrutinib]
Procedure, shortened: as §1

[1] = compound: CC(=O)c1cnc2ccc(-c3cc(Cl)c(O)c(Cl)c3)nc2c1N[C@H]1CC[C@H](CN(C)C)CC1
Procedure, shortened: as §1

ralimetinib = compound: CC(C)(C)Cn1c(N)nc2ccc(-c3[nH]c(C(C)(C)C)nc3-c3ccc(F)cc3)nc21 [ralimetinib]
Procedure, shortened: as §1

[2] = compound: CC(C)(O)CC(=O)NCCn1ccc2ncnc(Nc3ccc(Oc4cccc(C(F)(F)F)c4)c(Cl)c3)c21
Procedure, shortened: as §1

[3] = compound: CC(C)C1=C2N=C(C=C(N2N=C1)NCC3=CC=CC=C3)NCCCCCCN
Procedure, shortened: as §1

[4] = compound: CC(C)C[C@@H](C=O)NC(=O)[C@H](CC(C)C)NC(=O)[C@H](CC(C)C)NC(=O)OCc1ccccc1
Procedure, shortened: as §1

pinometostat = compound: CC(C)N(C[C@H]1O[C@@H](n2cnc3c(N)ncnc32)[C@H](O)[C@@H]1O)[C@H]1C[C@@H](CCc2nc3cc(C(C)(C)C)ccc3[nH]2)C1 [pinometostat]
Procedure, shortened: as §1

[5] = compound: CC1=C(C2=C(C=C1)C(=O)C3=CC=CC=C3N2CCCN)C
Procedure, shortened: as §1

[6] = compound: CC1=C(C(CC(=O)N1)C2=CC=C(C=C2)C(F)(F)F)C(=O)NC3=C(C=C4C(=C3)C=NN4)F
Procedure, shortened: as §1

Measured: log2 fold change

ZMAT2 (UniProt Q96NC0)
inactive: IRAK-1-4 Inhibitor I 0.11 | ibrutinib 0.025 | [1] -0.001 | ralimetinib -0.024 | [2] -0.016 | [3] 0.138 | [4] 0.049 | pinometostat -0.037 | [5] -0.04

YBX1 (UniProt C9J5V9)
inactive: IRAK-1-4 Inhibitor I 0.049 | [1] -0.085 | pinometostat -0.093

ZFYVE28 (UniProt Q9HCC9)
inactive: IRAK-1-4 Inhibitor I -0.148 | ibrutinib 0.255 | [3] -0.066 | pinometostat 0.111

ZEB1 isoform 2 (UniProt P37275)
inactive: IRAK-1-4 Inhibitor I 0.157 | ibrutinib 0.036 | [1] 0.053 | [3] 0.007 | pinometostat -0.029 | [6] -0.11 | [5] 0.011

XRN1 (UniProt Q8IZH2)
inactive: IRAK-1-4 Inhibitor I -0.234 | ibrutinib 0.387 | ralimetinib 0.233 | [2] 0.2 | [4] 0.239 | pinometostat 0.233 | [6] -0.107 | [5] -0.056

YIF1A (UniProt O95070)
inactive: IRAK-1-4 Inhibitor I 0.027 | ibrutinib 0.092 | [1] -0.044 | ralimetinib -0.094 | [3] 0.033 | [4] -0.049 | pinometostat -0.064 | [6] -0.024 | [5] 0.082

XPO5 (UniProt Q9HAV4)
active: [5] -0.204
inactive: IRAK-1-4 Inhibitor I -0.004 | ibrutinib -0.027 | [1] 0.032 | ralimetinib 0.001 | [2] -0.141 | [3] -0.21 | [4] -0.021 | pinometostat -0.01

XPC (UniProt Q01831)
inactive: IRAK-1-4 Inhibitor I 0.023 | [1] -0.135 | ralimetinib -0.424 | [2] -0.152 | [3] 0.002 | [4] 0.338 | pinometostat 0.029

XPNPEP1 isoform 3 (UniProt Q9NQW7)
inactive: IRAK-1-4 Inhibitor I 0.07 | ibrutinib -0.002 | [1] -0.011 | ralimetinib -0.03 | [2] -0.016 | [3] -0.135 | [4] -0.073 | pinometostat -0.006 | [5] 0.045

XK (UniProt P51811)
inactive: IRAK-1-4 Inhibitor I -0.059 | ibrutinib 0.491 | [1] -0.004 | [3] 0.134 | pinometostat -0.071 | [6] 0.026

ZDHHC8 isoform 3 (UniProt Q9ULC8)
active: [2] 0.486
inactive: IRAK-1-4 Inhibitor I -0.049 | ibrutinib 0.043 | pinometostat 0.026 | [5] 0.02

ZDHHC5 (UniProt Q9C0B5)
inactive: IRAK-1-4 Inhibitor I -0.043 | ibrutinib 0.02 | [1] -0.049 | ralimetinib -0.001 | [2] 0.033 | [3] 0.007 | [4] -0.029 | pinometostat -0.02 | [5] 0.08

ZDHHC4 (UniProt Q9NPG8)
inactive: IRAK-1-4 Inhibitor I 0.079 | ibrutinib 0.062 | [2] -0.15 | [3] 0.082 | pinometostat -0.113

YTHDC2 (UniProt Q9H6S0)
inactive: IRAK-1-4 Inhibitor I -0.219 | [1] -0.11 | [2] 0.097 | pinometostat 0.328

ZBTB3 (UniProt Q9H5J0)
inactive: IRAK-1-4 Inhibitor I 0.098 | ibrutinib 0.047 | [1] 0.294 | ralimetinib 0 | [3] 0.206 | [4] 0.069 | pinometostat -0.035 | [6] -0.091 | [5] 0.304

ZMYM2 (UniProt Q9UBW7)
inactive: IRAK-1-4 Inhibitor I 0.155 | ibrutinib 0.061 | pinometostat -0.081

ZER1 (UniProt Q7Z7L7)
inactive: IRAK-1-4 Inhibitor I 0.025 | ibrutinib 0.001 | [1] 0.009 | ralimetinib 0.089 | [2] -0.104 | [3] -0.072 | [4] 0.039 | pinometostat 0.098 | [5] -0.017

YTHDF1 (UniProt Q9BYJ9)
inactive: IRAK-1-4 Inhibitor I -0.219 | ibrutinib -0.09 | [2] 0 | [3] -0.122 | pinometostat -0.034

ZFYVE9 (UniProt O95405)
inactive: IRAK-1-4 Inhibitor I 0.034 | ibrutinib -0.105 | ralimetinib -0.008 | [2] -0.019 | [3] -0.389 | [4] -0.036 | pinometostat -0.141 | [6] -0.064 | [5] 0.073

ZDHHC7 isoform 2 (UniProt Q9NXF8)
inactive: IRAK-1-4 Inhibitor I 0 | [1] -0.017 | ralimetinib -0.033 | [2] -0.026 | [3] -0.008 | [4] -0.069 | pinometostat -0.024 | [5] 0.005

ZFR (UniProt Q96KR1)
inactive: IRAK-1-4 Inhibitor I -0.032 | ibrutinib 0.01 | ralimetinib 0.201 | [2] 0.222 | [3] 0.184 | [4] 0.041 | pinometostat 0.178 | [6] -0.165 | [5] 0.005

ZDHHC2 (UniProt Q9UIJ5)
inactive: IRAK-1-4 Inhibitor I -0.116 | ibrutinib -0.082 | ralimetinib -0.037 | [4] -0.06 | pinometostat 0.035 | [6] -0.054

ZFAND1 (UniProt Q8TCF1)
inactive: IRAK-1-4 Inhibitor I 0.141 | ibrutinib -0.019 | ralimetinib 0.306 | [3] -0.138 | [4] -0.307 | pinometostat 0.235 | [6] -0.005 | [5] -0.088

ZMYM4 (UniProt Q5VZL5)
inactive: IRAK-1-4 Inhibitor I -0.165 | ibrutinib -0.137 | ralimetinib -0.035 | [2] 0.053 | [3] 0.006 | [4] 0.24 | pinometostat 0.125 | [6] -0.01 | [5] 0.284

ZCCHC9 (UniProt Q8N567)
inactive: IRAK-1-4 Inhibitor I -0.085 | ibrutinib 0.06 | [1] 0.143 | ralimetinib 0.017 | [2] 0.166 | [3] 0.004 | [4] 0.305 | pinometostat 0.187 | [5] -0.187

Looked up one by one from the list above, two records:
ZDHHC5 (UniProt Q9C0B5)
inactive: IRAK-1-4 Inhibitor I -0.043 | ibrutinib 0.02 | [1] -0.049 | ralimetinib -0.001 | [2] 0.033 | [3] 0.007 | [4] -0.029 | pinometostat -0.02 | [5] 0.08

ZEB1 isoform 2 (UniProt P37275)
inactive: IRAK-1-4 Inhibitor I 0.157 | ibrutinib 0.036 | [1] 0.053 | [3] 0.007 | pinometostat -0.029 | [6] -0.11 | [5] 0.011

More entries:

YWHAZ (UniProt E7ESK7)
inactive: IRAK-1-4 Inhibitor I 0.005 | ibrutinib -0.167 | [1] -0.081 | ralimetinib -0.031 | [2] 0.021 | [4] 0.019 | pinometostat -0.035 | [5] 0.029

XRCC1 (UniProt P18887)
inactive: IRAK-1-4 Inhibitor I 0.13 | [1] 0.027 | ralimetinib -0.115 | [2] -0.368 | [3] -0.066 | [4] 0.432 | pinometostat 0.41 | [5] -0.047

YWHAZ (UniProt P63104)
inactive: IRAK-1-4 Inhibitor I 0.105 | ibrutinib 0.019 | [1] 0.06 | ralimetinib 0.145 | [2] 0.027 | [3] 0.052 | [4] -0.098 | pinometostat -0.026 | [5] -0.009

ZC3H18 (UniProt Q86VM9)
inactive: IRAK-1-4 Inhibitor I -0.036 | ibrutinib 0.002 | [1] -0.155 | ralimetinib 0.03 | [2] 0.034 | [3] -0.122 | [4] -0.042 | pinometostat 0.053
active: [5] -0.612

ZBTB7B isoform 2 (UniProt O15156)
inactive: [5] -0.045

ZFC3H1 (UniProt O60293)
inactive: ibrutinib 0.073 | [1] 0.038 | ralimetinib 0.04 | [4] -0.012 | [6] 0.061

ZBTB17 isoform 2 (UniProt Q13105)
active: [5] 1.05
inactive: ibrutinib -0.05 | [3] 0.054

ZBTB34 (UniProt Q8NCN2)
inactive: [1] 0.284

— the supplement of paper PMC10849652
